PubChem BioAssay AID1259405 | NCATS | 2018
The deposit covers about 50,000 reagents; this is a random part of them. Over the whole deposit, about 4,000 (8%) are marked active. 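Mouse siRNA library applied to hamster cells; one well for each siRNA.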 The numbers tell different reagents against one gene apart. Reagent sequences are not shown.

- Screen: 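Mouse-designed siRNAs used to find CHO productivity engineering targets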 (primary screen)
- System: Chinese hamster CHO-K1 ovary cells with stable secreted eGFP expression
- Reagents: single siRNA against mouse genes, 0.8 pmol siRNA per well (2 µl of 400 nM stock)
- Duration: 3 days
- Read-out: 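Percent of the per-plate non-targeting control median for intracellular GFP per well by laser scanning cytometry and for cell viability by ATP luminescence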
- Reading the numbers: GFP, % of control: higher = more GFP per well, higher productivity; viability (ATP), % of control: higher = more viable cells (more ATP)
- Active means: 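Called active when intracellular GFP, relative to negative control, is at or above 120%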

no.	Target gene	reagent	GFP, % of control	viability (ATP), % of control	Call
1	Smg9 (SMG9 nonsense mediated mRNA decay factor)	1	83.6	73.7	inactive
2	Smg9 (SMG9 nonsense mediated mRNA decay factor)	2	110	91.2	inactive
3	Smg9 (SMG9 nonsense mediated mRNA decay factor)	3	51.1	66.2	inactive
4	Lpcat2 (lysophosphatidylcholine acyltransferase 2)	1	108	138	inactive
5	Lpcat2 (lysophosphatidylcholine acyltransferase 2)	2	130	90	active
6	Crb1	1	55	70.6	inactive
7	Crb1	2	62.4	79.8	inactive
8	Crb1	3	75.3	82.6	inactive
9	Gpr176 (G protein-coupled receptor 176)	1	61.6	58.1	inactive
10	Gpr176 (G protein-coupled receptor 176)	2	100	75.4	inactive
11	Gpr176 (G protein-coupled receptor 176)	3	56.8	68.5	inactive
12	Tsen2 (tRNA splicing endonuclease subunit 2)	1	36.9	57.2	inactive
13	Tsen2 (tRNA splicing endonuclease subunit 2)	2	82.2	108	inactive
14	Tsen2 (tRNA splicing endonuclease subunit 2)	3	119	102	inactive
15	Pts (6-pyruvoyl-tetrahydropterin synthase)	1	52.4	68.9	inactive
16	Pts (6-pyruvoyl-tetrahydropterin synthase)	2	87.8	155	inactive
17	Pts (6-pyruvoyl-tetrahydropterin synthase)	3	75.8	85.9	inactive
18	Ahctf1 (AT hook containing transcription factor 1)	1	89.3	86.1	inactive
19	Ahctf1 (AT hook containing transcription factor 1)	2	75.5	79.5	inactive
20	Ahctf1 (AT hook containing transcription factor 1)	3	49.7	41.8	inactive
21	AW551984 (expressed sequence AW551984)	1	21	27.7	inactive
22	AW551984 (expressed sequence AW551984)	2	68.1	72.2	inactive
23	AW551984 (expressed sequence AW551984)	3	112	137	inactive
24	Gm10439 (predicted gene 10439)	1	55.4	68	inactive
25	Gm10439 (predicted gene 10439)	2	30.2	46.3	inactive
26	Gm10439 (predicted gene 10439)	3	64.9	36.8	inactive
27	Paral1 (PPARG activating RBM14 associated lncRNA 1)	1	36.7	54.9	inactive
28	Paral1 (PPARG activating RBM14 associated lncRNA 1)	2	67.3	79.1	inactive
29	Paral1 (PPARG activating RBM14 associated lncRNA 1)	3	107	102	inactive
30	Nup58 (nucleoporin 58)	1	74.8	66	inactive
31	Nup58 (nucleoporin 58)	2	72.2	86.9	inactive
32	Nup58 (nucleoporin 58)	3	95.2	45.2	inactive

Continued; the last 3 above are carried over.
no.	Target gene	reagent	GFP, % of control	viability (ATP), % of control	Call
30	Nup58 (nucleoporin 58)	1	74.8	66	inactive
31	Nup58 (nucleoporin 58)	2	72.2	86.9	inactive
32	Nup58 (nucleoporin 58)	3	95.2	45.2	inactive
33	Stab1 (stabilin 1)	1	95	121	inactive
34	Stab1 (stabilin 1)	2	66.8	62.9	inactive
35	Tbx3 (T-box 3)	1	82.7	62.8	inactive
36	Tbx3 (T-box 3)	2	61.7	64.6	inactive
37	Tbx3 (T-box 3)	3	81.9	72.7	inactive
38	4931414P19Rik (RIKEN cDNA 4931414P19 gene)	1	120	50.7	active
39	4931414P19Rik (RIKEN cDNA 4931414P19 gene)	2	58.8	60.5	inactive
40	4931414P19Rik (RIKEN cDNA 4931414P19 gene)	3	62.9	65	inactive
41	Sema6a	1	84.7	48	inactive
42	Sema6a	2	80	85.9	inactive
43	Sema6a	3	66.6	93.9	inactive
44	Txlng (taxilin gamma)	1	82.6	47.8	inactive
45	Txlng (taxilin gamma)	2	105	77.9	inactive
46	Txlng (taxilin gamma)	3	89.7	56.3	inactive
47	Trem2 (triggering receptor expressed on myeloid cells 2)	1	69.1	69.4	inactive
48	Trem2 (triggering receptor expressed on myeloid cells 2)	2	58.8	52.9	inactive
49	Trem2 (triggering receptor expressed on myeloid cells 2)	3	70.9	62.5	inactive
50	Uqcrfs1	1	50.2	55.4	inactive
51	Uqcrfs1	2	83.7	65.4	inactive
52	Uqcrfs1	3	23.1	18.8	inactive
53	Folh1 (folate hydrolase 1)	1	62	111	inactive
54	Folh1 (folate hydrolase 1)	2	128	76.4	active
55	Folh1 (folate hydrolase 1)	3	73.1	75.6	inactive
56	Or10q1b (olfactory receptor family 10 subfamily Q member 1B)	1	113	52.6	inactive
57	Or10q1b (olfactory receptor family 10 subfamily Q member 1B)	2	77.1	80.6	inactive
58	Or10q1b (olfactory receptor family 10 subfamily Q member 1B)	3	66.3	106	inactive
59	Eif5a2 (eukaryotic translation initiation factor 5A2)	1	59.9	86.7	inactive
60	Eif5a2 (eukaryotic translation initiation factor 5A2)	2	81.8	77.9	inactive
61	Eif5a2 (eukaryotic translation initiation factor 5A2)	3	83.7	112	inactive
62	Sugt1 (SGT1, suppressor of G2 allele of SKP1 (S. cerevisiae))	1	71.7	83.2	inactive
63	Sugt1 (SGT1, suppressor of G2 allele of SKP1 (S. cerevisiae))	2	52.7	31.7	inactive
64	Sugt1 (SGT1, suppressor of G2 allele of SKP1 (S. cerevisiae))	3	74.3	82	inactive
65	Acox1 (acyl-Coenzyme A oxidase 1, palmitoyl)	1	85.9	66.7	inactive
66	Acox1 (acyl-Coenzyme A oxidase 1, palmitoyl)	2	99.6	95	inactive
67	Acox1 (acyl-Coenzyme A oxidase 1, palmitoyl)	3	70.6	64.8	inactive
68	Zmat5 (zinc finger, matrin type 5)	1	97.5	69.3	inactive
69	Zmat5 (zinc finger, matrin type 5)	2	84.8	92.6	inactive
70	Zmat5 (zinc finger, matrin type 5)	3	118	82.6	inactive
71	Tinag (tubulointerstitial nephritis antigen)	1	113	67	inactive
72	Tinag (tubulointerstitial nephritis antigen)	2	68.6	78.8	inactive
73	Tinag (tubulointerstitial nephritis antigen)	3	65.4	53.4	inactive
74	Chga (chromogranin A)	1	195	80	active
75	Chga (chromogranin A)	2	90.9	95	inactive
76	Tars1 (threonyl-tRNA synthetase 1)	1	89.3	74.4	inactive
77	Tars1 (threonyl-tRNA synthetase 1)	2	78.2	73.3	inactive
78	Tars1 (threonyl-tRNA synthetase 1)	3	73.6	95.8	inactive
79	Cst9 (cystatin 9)	1	42.7	23.1	inactive
80	Cst9 (cystatin 9)	2	67.7	63.3	inactive
81	Cst9 (cystatin 9)	3	88.7	88.8	inactive
82	Mtus2 (microtubule associated tumor suppressor candidate 2)	1	29.9	24.4	inactive
83	Mtus2 (microtubule associated tumor suppressor candidate 2)	2	78.6	86.7	inactive
84	Mtus2 (microtubule associated tumor suppressor candidate 2)	3	81.4	92.9	inactive
